Data as given in the supplement of paper PMC12889115.
This is one part of the list. Values are raw readings; no control value is given beside them.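 Primary screen: polymyxin B was added at a level permeabilizing Salmonella outer membranes while sparing inner membranes. DMSO wells, both with and without polymyxin B, established maximum growth. Plate-to-plate variation meant each plate was ranked on its own, and the lowest-OD600 compounds were selected as hits.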

Tested on: Salmonella enterica serovar Typhimurium SL1344
Assay: bacterial growth OD600 after 18 h with compound and polymyxin B; higher = more bacterial growth (less inhibition)
Settings: 50 µM, Mueller-Hinton broth

Row | SMILES | bacterial growth OD600 (polymyxin B 1 µg/mL) | bacterial growth OD600 (polymyxin B 0.75 µg/mL)
1 | CCOc1ccc(CN2CCCC(CCC(=O)Nc3ccccc3F)C2)cc1CO (stereo not given) | 0.938 | –
2 | COc1cccc(C(=O)NCC2CCCN(CCCn3cccn3)C2)c1OC (stereo not given) | 1.02 | –
3 | Cc1nn(C)cc1CN1CCC(c2cccc(F)c2)Sc2ccccc21 (stereo not given) | – | 0.018
4 | CC(C)CCN1CCNC(=O)C1CC(=O)NCCCn1cccn1 (stereo not given) | 0.92 | –
5 | CCN(CC)C1CCN(C(=O)c2ccc3nc(Cc4cccc(Cl)c4)oc3c2)C1 (stereo not given) | – | 0.688
6 | COc1cccc(CC2(CCC(=O)NCc3cccc(C(F)(F)F)c3)CCC(=O)N2)c1 (stereo not given) | – | 0.841
7 | O=C(CCC1CCN(C(=O)CCc2cn[nH]c2)CC1)NCc1cccc(Cl)c1 | – | 0.765
8 | CC(CC1CC1)N1CCC(N2CCC(C(=O)NCc3cccnc3)CC2)CC1 (stereo not given) | 0.834 | –
9 | Cc1c[nH]c(CN(C)C(=O)c2cc(Cn3c(C)nc4ccccc43)on2)n1 | 1.05 | –
10 | CCC1CN(Cc2c(OC)cccc2OC)Cc2cc(OC)ccc2O1 (stereo not given) | – | 0.789
11 | CSc1cccc(CN2CCC(n3nccc3NC(=O)C3CC3)CC2)c1 | 0.909 | –
12 | C=CCC(O)(CC=C)CNC1CCN(c2ccc(CC(=O)NCc3ccccc3)cc2)CC1 | – | 0.834
13 | Cc1cc(CNCC2(O)CCCN(Cc3ccc(F)c(F)c3)C2=O)no1 (stereo not given) | 1 | –
14 | Cc1ccccc1C(CC(=O)NCc1ccccn1)c1ccccc1 (stereo not given) | 0.743 | –
15 | COc1ccc(-c2ccc3c(c2)CC(CNC(=O)c2cccc(-n4nc(C)cc4C)c2)O3)nn1 (stereo not given) | – | 0.819
16 | COc1ccc(C(=O)NC(C)c2ccc(Cl)cc2)cc1OC1CCN(C(C)=O)CC1 (stereo not given) | 1.1 | –
17 | CCC1CN(CCC(=O)NCCC2COc3ccccc3O2)Cc2cc(OC)ccc2O1 (stereo not given) | – | 0.802
18 | CSc1ccccc1C(=O)NCc1c(C)ncc2c1CCN(C(=O)c1ccccc1-n1cccn1)C2 | – | 0.783
19 | CC(=O)N1CCCN(C(=O)c2cc(Cn3c(C)nc4ccccc43)[nH]n2)CC1 | 0.956 | –
20 | Cc1c(-c2ccccc2F)[nH]c2ccc(CNC(=O)C3CCC(=O)N3)cc12 (stereo not given) | 0.768 | –

Another view of some results above:
Row,SMILES,bacterial growth OD600 (polymyxin B 1 µg/mL),bacterial growth OD600 (polymyxin B 0.75 µg/mL)
15,COc1ccc(-c2ccc3c(c2)CC(CNC(=O)c2cccc(-n4nc(C)cc4C)c2)O3)nn1 (stereo not given),–,0.819
16,COc1ccc(C(=O)NC(C)c2ccc(Cl)cc2)cc1OC1CCN(C(C)=O)CC1 (stereo not given),1.1,–
17,CCC1CN(CCC(=O)NCCC2COc3ccccc3O2)Cc2cc(OC)ccc2O1 (stereo not given),–,0.802
